These are yes or no findings as the source states them, for the method shown. In cells and extracts the contact can be indirect. Here binding means that the protein was enriched with, or labelled near, the bait; the list need not be complete.
Biological target: calpain-1 conjugated with Flag (Ad-CAPN1) (rat) (UniProt P97571)
Test: affinity purification with mass spectrometry; anti-Flag (control anti-IgG) immunoprecipitation from NP40 lysates of Ad-CAPN1-infected NRCMs, with or without CVB3 infection; Protein A/G magnetic beads, overnight 4 °C; SDS-PAGE then mass spectrometry

Protein sequences, listed by entry. Tags and fused reporters are not part of them. Residues count along the entry.
UniProt P97571: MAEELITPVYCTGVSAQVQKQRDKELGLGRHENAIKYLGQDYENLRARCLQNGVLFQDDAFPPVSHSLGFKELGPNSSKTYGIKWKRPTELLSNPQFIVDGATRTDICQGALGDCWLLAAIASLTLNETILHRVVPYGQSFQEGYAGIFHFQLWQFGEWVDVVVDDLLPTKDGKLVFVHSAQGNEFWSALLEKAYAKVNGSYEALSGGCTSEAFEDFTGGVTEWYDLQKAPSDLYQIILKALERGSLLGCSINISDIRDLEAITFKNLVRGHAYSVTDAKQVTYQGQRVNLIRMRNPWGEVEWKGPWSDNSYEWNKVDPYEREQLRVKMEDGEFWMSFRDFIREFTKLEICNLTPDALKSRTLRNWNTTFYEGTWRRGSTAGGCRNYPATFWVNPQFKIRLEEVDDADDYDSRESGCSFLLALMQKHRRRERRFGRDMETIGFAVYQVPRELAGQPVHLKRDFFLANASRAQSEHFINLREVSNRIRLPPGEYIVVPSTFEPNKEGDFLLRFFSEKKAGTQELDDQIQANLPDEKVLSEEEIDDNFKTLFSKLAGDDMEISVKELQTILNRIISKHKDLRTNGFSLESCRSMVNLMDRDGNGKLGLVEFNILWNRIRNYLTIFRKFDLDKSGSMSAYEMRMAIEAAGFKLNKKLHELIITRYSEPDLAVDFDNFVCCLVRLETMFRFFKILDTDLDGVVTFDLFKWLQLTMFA
UniProt P15999, residues 44-553: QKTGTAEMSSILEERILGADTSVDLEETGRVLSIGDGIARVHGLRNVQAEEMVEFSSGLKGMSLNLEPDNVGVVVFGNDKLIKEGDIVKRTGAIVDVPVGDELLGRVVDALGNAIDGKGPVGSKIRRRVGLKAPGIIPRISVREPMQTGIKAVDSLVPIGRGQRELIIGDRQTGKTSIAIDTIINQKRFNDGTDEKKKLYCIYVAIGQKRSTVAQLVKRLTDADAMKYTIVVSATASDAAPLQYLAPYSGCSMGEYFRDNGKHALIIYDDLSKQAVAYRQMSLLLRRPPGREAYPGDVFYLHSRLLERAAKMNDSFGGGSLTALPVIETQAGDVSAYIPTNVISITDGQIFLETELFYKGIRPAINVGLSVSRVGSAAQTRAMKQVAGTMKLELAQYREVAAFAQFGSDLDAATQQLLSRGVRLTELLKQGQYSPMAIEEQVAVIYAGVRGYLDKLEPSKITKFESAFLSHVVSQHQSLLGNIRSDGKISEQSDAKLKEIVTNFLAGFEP

binding: binds
Substance: ATP synthase-α (ATP5A1) (from UniProt P15999 44-553)
